Assay results taken from patent US20050261196A1 (UNIVERSITY OF CHICAGO, published 2005).
No constants are given. Whether binding was seen depends on the method and setting. Some binding calls cover weakened binding; strength is not graded here.

Protein sequences, listed by entry. Tags and fused reporters are not part of them.
UniProt Q15746: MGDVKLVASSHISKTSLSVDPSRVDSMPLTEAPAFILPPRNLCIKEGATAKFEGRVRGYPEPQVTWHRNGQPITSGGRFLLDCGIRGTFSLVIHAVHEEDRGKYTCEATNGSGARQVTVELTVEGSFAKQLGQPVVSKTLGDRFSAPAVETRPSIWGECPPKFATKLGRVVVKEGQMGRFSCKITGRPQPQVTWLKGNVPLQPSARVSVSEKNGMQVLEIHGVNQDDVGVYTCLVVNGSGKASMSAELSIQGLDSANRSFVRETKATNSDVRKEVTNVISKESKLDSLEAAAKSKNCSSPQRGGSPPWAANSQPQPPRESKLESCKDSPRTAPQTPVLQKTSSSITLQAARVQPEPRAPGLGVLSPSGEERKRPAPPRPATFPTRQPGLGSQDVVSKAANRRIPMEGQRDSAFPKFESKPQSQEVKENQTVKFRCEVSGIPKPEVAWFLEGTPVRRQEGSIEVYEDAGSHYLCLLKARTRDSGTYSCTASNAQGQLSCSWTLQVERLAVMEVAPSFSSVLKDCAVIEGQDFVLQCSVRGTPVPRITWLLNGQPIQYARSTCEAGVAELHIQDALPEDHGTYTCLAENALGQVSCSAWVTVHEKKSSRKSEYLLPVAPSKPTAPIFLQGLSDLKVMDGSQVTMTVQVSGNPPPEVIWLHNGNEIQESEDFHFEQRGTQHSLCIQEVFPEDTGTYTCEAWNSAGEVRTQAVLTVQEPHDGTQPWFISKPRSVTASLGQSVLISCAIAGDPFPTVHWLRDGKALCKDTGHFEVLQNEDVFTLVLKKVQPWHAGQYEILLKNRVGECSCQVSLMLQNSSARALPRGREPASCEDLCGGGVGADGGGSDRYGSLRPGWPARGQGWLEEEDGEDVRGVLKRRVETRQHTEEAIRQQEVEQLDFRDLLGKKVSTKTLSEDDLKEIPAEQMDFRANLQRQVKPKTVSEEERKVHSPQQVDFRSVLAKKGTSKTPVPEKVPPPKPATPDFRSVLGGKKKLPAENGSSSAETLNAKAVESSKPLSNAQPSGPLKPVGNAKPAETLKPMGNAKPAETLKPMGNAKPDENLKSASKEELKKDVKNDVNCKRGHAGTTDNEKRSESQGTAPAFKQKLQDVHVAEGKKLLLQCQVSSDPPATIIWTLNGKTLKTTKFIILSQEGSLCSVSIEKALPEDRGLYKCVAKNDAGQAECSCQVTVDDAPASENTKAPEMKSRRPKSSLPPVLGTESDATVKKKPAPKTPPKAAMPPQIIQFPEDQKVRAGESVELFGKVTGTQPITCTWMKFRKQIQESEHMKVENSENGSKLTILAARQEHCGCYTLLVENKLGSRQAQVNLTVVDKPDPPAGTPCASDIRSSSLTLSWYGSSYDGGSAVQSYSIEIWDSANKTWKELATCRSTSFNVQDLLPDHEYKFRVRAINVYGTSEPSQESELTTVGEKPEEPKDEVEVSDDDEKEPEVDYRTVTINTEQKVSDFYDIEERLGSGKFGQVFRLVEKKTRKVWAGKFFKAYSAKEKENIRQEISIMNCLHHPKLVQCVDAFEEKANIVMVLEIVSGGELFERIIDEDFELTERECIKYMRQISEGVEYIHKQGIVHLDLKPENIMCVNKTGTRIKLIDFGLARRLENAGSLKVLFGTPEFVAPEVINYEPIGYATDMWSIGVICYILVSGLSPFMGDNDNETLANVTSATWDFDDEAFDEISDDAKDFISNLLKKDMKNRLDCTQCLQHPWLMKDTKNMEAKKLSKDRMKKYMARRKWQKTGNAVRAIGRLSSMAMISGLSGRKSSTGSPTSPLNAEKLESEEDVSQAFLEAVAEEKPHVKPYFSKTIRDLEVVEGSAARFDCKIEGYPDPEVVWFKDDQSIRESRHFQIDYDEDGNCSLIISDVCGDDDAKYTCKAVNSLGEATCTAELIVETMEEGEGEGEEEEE

Biological target: active (activated) MLCK, aldehyde-fixed (UniProt Q15746)
Assay: binding of PIK probe to aldehyde-fixed MLCK, streptavidin fluorescence

B1: PIK (SEQ ID NO: 12) (peptide)
peptide: RKKYKYRRK
- binding: binds
